Results: PubChem BioAssay AID248 (DTP/NCI, 2004)
The list is a part of this screen's results and no random one: it is rich in T/C values a quarter to a half above the control, in often repeated tests (any T/C) and in doses without a T/C. Further doses and runs are listed elsewhere. T/C gives the treated animals as a percentage of the vehicle group. Some entries give survivors of the animals treated and no T/C: the source files T/C as zero there, which appears to mark a toxic dose or a test without result, not a measured value. Some survivor counts are full or nearly so, which does not show that the dose was tolerated: survival well below the control is almost never listed, so the zero probably covers shortened survival too. Counts of survivors are from the toxicity check (mostly the fifth day) where no day follows; animals may have died later. Schedule codes are those of the source, taken here to give the interval after Q, in days (D) or hours (H), and the number of doses after X. Some schedules carry Z or #; the key to these is not given. Some structures stand for samples that the source files as different forms (salt, stereo form or complex); doses refer to the form tested. For survival time, this PubChem deposit counts one and a half times the control or more as active, and values a quarter to a half above the control carry no call in these data; other NCI protocols may use other cut-offs. Some entries hold several experiments; their values stand side by side, smallest first.

Test system: L1210 leukemia ip in BDF1 mice, survival T/C
Assay: NCI In Vivo Anticancer Drug Screen. Data for tumor model L1210 Leukemia (intraperitoneal) in B6D2F1 (BDF1) mice
Conditions: T/C endpoint: mean survival time, higher T/C = longer survival
[1] = dose: 200.0 mg/kg/injection, schedule: Q04DX003 (ip), vehicle: saline
[2] = dose: 400.0 mg/kg/injection, schedule: Q04DX003 (ip), vehicle: saline
[3] = dose: 150.0 mg/kg/injection, schedule: Q01DX001 (ip), vehicle: saline
[4] = dose: 300.0 mg/kg/injection, schedule: Q01DX001 (ip), vehicle: saline
[5] = dose: 400.0 mg/kg/injection, schedule: Q01DX001 (ip), vehicle: saline
[6] = dose: 200.0 mg/kg/injection, schedule: Q01DX009 (ip), vehicle: saline
[7] = dose: 100.0 mg/kg/injection, schedule: Q01DX009 (ip), vehicle: Klucel (hydroxypropylcellulose) (HPC)
[8] = dose: 400.0 mg/kg/injection, schedule: Q01DX001 (ip), vehicle: carboxymethylcellulose (CMC)

CCCCCCCCN1CCCC(OC(=O)N(C)C)C1 (stereo not drawn)
survivor count (dose: 100.0 mg/kg/injection, schedule: Q04DX002 (ip), vehicle: saline): 1 of 3 | survivor count (dose: 200.0 mg/kg/injection, schedule: Q04DX002 (ip), vehicle: saline): 0 of 3 | survivor count (dose: 400.0 mg/kg/injection, schedule: Q04DX002 (ip), vehicle: saline): 0 of 3

CCN(CC)Cc1cc(Nc2nc(NC3CCC(N(C)C)CC3)c3ccccc3n2)ccc1OC (stereo not drawn)
survivor count (dose: 100.0 mg/kg/injection, schedule: Q04DX003 (ip), vehicle: saline): 5 of 6 | survivor count [1]: 0 of 6 | survivor count [2]: 1 of 6

C1O[C@H]1[C@H]1CO1
survivor count (dose: 24.0 mg/kg/injection, schedule: Q01DX Z (ip), vehicle: saline): 0 of 6 | T/C (dose: 44.0 mg/kg/injection, schedule: Q01DX001 (ip), vehicle: saline): 125 % of control | survivor count (dose: 66.0 mg/kg/injection, schedule: Q01DX001 (ip), vehicle: saline): 2 of 4 | survivor count (dose: 100.0 mg/kg/injection, schedule: Q01DX001 (ip), vehicle: saline): 0 of 4 | survivor count [3]: 0 of 4

[Cl][Pt+2][Cl].[NH-]CCN1CC1
T/C [1]: 128 and 130 % of control | T/C [2]: 130 and 136 % of control | survivor count (dose: 600.0 mg/kg/injection, schedule: Q04DX003 (ip), vehicle: saline): 1 of 6

CC/C=C(\C)C1(CC)C(=O)NC(=O)NC1=O
survivor count [4]: 3 of 6

O=C1C(Br)C(Br)C(=O)N1c1ccccc1F (stereo not drawn)
survivor count (dose: 50.0 mg/kg/injection, schedule: Q01DX009 (ip), vehicle: other): 2 of 6 | survivor count (dose: 100.0 mg/kg/injection, schedule: Q01DX009 (ip), vehicle: other): 0 of 6 | survivor count (dose: 200.0 mg/kg/injection, schedule: Q01DX009 (ip), vehicle: other): 0 of 6 | survivor count (dose: 400.0 mg/kg/injection, schedule: Q01DX009 (ip), vehicle: other): 0 of 6

Cc1ccc(S(=O)(=O)OCCN(CCOS(=O)(=O)c2ccc(C)cc2)c2ccccc2)cc1
T/C (dose: 15.0 mg/kg/injection, schedule: Q01DX015 (ip), vehicle: carboxymethylcellulose (CMC)): 125 % of control | T/C (dose: 30.0 mg/kg/injection, schedule: Q01DX015 (ip), vehicle: carboxymethylcellulose (CMC)): 127 % of control | T/C (dose: 120.0 mg/kg/injection, schedule: Q01DX015 (ip), vehicle: carboxymethylcellulose (CMC)): 143 % of control | T/C (dose: 200.0 mg/kg/injection, schedule: Q01DX001 (ip), vehicle: saline): 129 % of control | T/C (dose: 240.0 mg/kg/injection, schedule: Q01DX015 (ip), vehicle: carboxymethylcellulose (CMC)): 136 % of control | T/C [5]: 127 % of control

CN1N(C(O)C(Cl)(Cl)Cl)C12CCCCC2 (stereo not drawn)
survivor count (dose: 12.0 mg/kg/injection, schedule: Q01DX009 (ip), vehicle: water): 0 of 6 | survivor count (dose: 25.0 mg/kg/injection, schedule: Q01DX009 (ip), vehicle: water): 0 of 6 | survivor count (dose: 50.0 mg/kg/injection, schedule: Q01DX001 (ip), vehicle: carboxymethylcellulose (CMC)): 3 of 6 | survivor count (dose: 50.0 mg/kg/injection, schedule: Q01DX009 (ip), vehicle: water): 1 of 6 | survivor count (dose: 100.0 mg/kg/injection, schedule: Q01DX001 (ip), vehicle: carboxymethylcellulose (CMC)): 2 of 6 | survivor count (dose: 100.0 mg/kg/injection, schedule: Q01DX009 (ip), vehicle: water): 0 of 6

O=C(CCCC(=O)N/N=C/c1cc(Br)ccc1O)N/N=C\c1cc(Br)ccc1O
survivor count [6]: 6 of 6

O=C(CCCN1CCC(n2c(=O)[nH]c3ccccc32)CC1)c1ccc(F)cc1
survivor count (dose: 50.0 mg/kg/injection, schedule: Q04DX003 (ip), vehicle: Klucel (hydroxypropylcellulose) (HPC)): 4 of 4 | survivor count [7]: 5 of 6 | survivor count [6]: 1 of 6 | survivor count (dose: 200.0 mg/kg/injection, schedule: Q04DX003 (ip), vehicle: Klucel (hydroxypropylcellulose) (HPC)): 2 of 4 | survivor count (dose: 400.0 mg/kg/injection, schedule: Q04DX003 (ip), vehicle: Klucel (hydroxypropylcellulose) (HPC)): 0 of 4

CCOP(=O)(OCC)O/N=C(/C)c1cccc([N+](=O)[O-])c1
survivor count (dose: 20.0 mg/kg/injection, schedule: Q01DX001 (ip), vehicle: saline): 0 of 6 | survivor count (dose: 40.0 mg/kg/injection, schedule: Q01DX001 (ip), vehicle: saline): 0 of 6 | survivor count (dose: 75.0 mg/kg/injection, schedule: Q01DX001 (ip), vehicle: saline): 0 of 6 | survivor count (dose: 80.0 mg/kg/injection, schedule: Q01DX001 (ip), vehicle: saline): 0 of 6 | survivor count [3]: 0 of 6 | survivor count [4]: 0 of 6

N=C(N)SC1c2cc(Cl)ccc2-c2c(Cl)cc(Cl)cc21 (stereo not drawn)
survivor count [8]: 0 of 4

CCc1ccc(NC(=S)Nc2ccccc2)cc1
survivor count (dose: 400.0 mg/kg/injection, schedule: Q04DX002 (ip), vehicle: other): 1 of 3

CCC(C)(C)c1ccc(O)c(C(=O)O)c1
survivor count [8]: 1 of 4

CCC(C)C(C(=O)OC1CCN(CC)CC1)c1ccccc1 (stereo not drawn)
survivor count [1]: 5 of 6 | survivor count [2]: 0 of 6

CC12CCC(Cl)(CC1O)C2(C)C (stereo not drawn)
survivor count [4]: 3 of 6

CN=C(c1ccc(NC(=O)c2ccc(C(=O)Nc3ccc(C(=NC)N(C)C4CCCCC4)cc3)cc2)cc1)N(C)C1CCCCC1
survivor count (dose: 1.88 mg/kg/injection, schedule: Q01DX Z (ip), vehicle: saline): 0 of 6 | survivor count (dose: 3.75 mg/kg/injection, schedule: Q01DX Z (ip), vehicle: saline): 1 of 6 | survivor count (dose: 7.5 mg/kg/injection, schedule: Q01DX Z (ip), vehicle: saline): 0 of 6 | survivor count (dose: 15.0 mg/kg/injection, schedule: Q01DX Z (ip), vehicle: saline): 0 of 6 | survivor count (dose: 30.0 mg/kg/injection, schedule: Q01DX Z (ip), vehicle: saline): 0 of 6 | survivor count (dose: 60.0 mg/kg/injection, schedule: Q01DX Z (ip), vehicle: saline): 0 of 6 | survivor count (dose: 120.0 mg/kg/injection, schedule: Q01DX Z (ip), vehicle: saline): 0 of 6

CCCCCCCCCCCCCCCCS(=O)(=O)c1ccc(S(=O)(=O)CS(C)(=O)=O)cc1[N+](=O)[O-]
survivor count (dose: 400.0 mg/kg/injection, schedule: Q01DX001 (ip), vehicle: other): 6 of 6

CC(=O)Oc1ccc2c3c(ccc2c1)CCCC3
survivor count [7]: 2 of 3

CC(C)CCNCC(C)(C)OC(=O)c1ccc(N)cc1
survivor count (dose: 75.0 mg/kg/injection, schedule: Q01DX001 (ip), vehicle: acetone): 1 of 6 | survivor count (dose: 150.0 mg/kg/injection, schedule: Q01DX001 (ip), vehicle: acetone): 0 of 6 | survivor count (dose: 300.0 mg/kg/injection, schedule: Q01DX001 (ip), vehicle: acetone): 0 of 6

C[C@]12CC[C@H]3[C@@H](CC[C@]4(O)C[C@@H](O)CC[C@]34C=O)[C@@]1(O)CC[C@@H]2C1=CC(=O)OC1
survivor count (dose: 200.0 mg/kg/injection, schedule: Q01DX009 (ip), vehicle: carboxymethylcellulose (CMC)): 3 of 6 | survivor count [8]: 2 of 6 | survivor count (dose: 400.0 mg/kg/injection, schedule: Q01DX009 (ip), vehicle: carboxymethylcellulose (CMC)): 3 of 6 | survivor count (dose: 600.0 mg/kg/injection, schedule: Q04DX003 (ip), vehicle: Klucel (hydroxypropylcellulose) (HPC)): 6 of 6

Nc1ccccc1Sc1ccc2c3c(cccc13)C(=O)N(c1ccccc1)C2=O
survivor count (dose: 200.0 mg/kg/injection, schedule: Q04DX002 (ip), vehicle: saline with Tween-80): 3 of 3

N#CC1C(=O)NC(=O)C(C#N)C12CCCCC2 (stereo not drawn)
survivor count [5]: 2 of 4 | survivor count (dose: 400.0 mg/kg/injection, schedule: Q01DX009 (ip), vehicle: saline with Tween-80): 2 of 6
